We go through 1 substance from article PMC5341950, “Antitumor activity of a novel anti-vascular endothelial growth factor receptor-1 monoclonal antibody that does not interfere with ligand binding” (Oncotarget, 2016).

By UniProt entry, the sequences of proteins in these tests, tags left out. Where a name states a change or a piece, a line headed by the entry shows the natural chain unless it says otherwise. Chains listed by the source or under a name are the forms on record and can include a tag or linker. Residues count along the entry.
native human soluble VEGFR-1 (sVEGFR-1) (P17948, form named): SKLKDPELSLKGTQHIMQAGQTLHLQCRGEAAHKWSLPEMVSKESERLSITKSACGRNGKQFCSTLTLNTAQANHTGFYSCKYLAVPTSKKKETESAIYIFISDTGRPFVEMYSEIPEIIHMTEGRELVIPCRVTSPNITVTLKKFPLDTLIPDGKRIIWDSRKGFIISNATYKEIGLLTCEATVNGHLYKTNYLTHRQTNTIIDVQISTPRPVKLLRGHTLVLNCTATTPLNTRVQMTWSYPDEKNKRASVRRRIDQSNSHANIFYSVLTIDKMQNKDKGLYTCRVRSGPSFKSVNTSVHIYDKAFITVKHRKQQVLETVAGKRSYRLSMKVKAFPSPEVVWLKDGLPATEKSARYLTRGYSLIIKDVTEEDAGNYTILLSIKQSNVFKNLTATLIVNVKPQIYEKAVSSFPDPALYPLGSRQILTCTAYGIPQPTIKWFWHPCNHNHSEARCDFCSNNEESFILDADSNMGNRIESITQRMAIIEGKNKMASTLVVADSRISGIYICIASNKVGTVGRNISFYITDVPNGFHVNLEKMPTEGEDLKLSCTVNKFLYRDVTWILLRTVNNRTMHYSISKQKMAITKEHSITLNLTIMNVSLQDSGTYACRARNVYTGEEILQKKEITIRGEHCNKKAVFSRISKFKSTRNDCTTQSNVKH
UniProt O14786, residues 22-856: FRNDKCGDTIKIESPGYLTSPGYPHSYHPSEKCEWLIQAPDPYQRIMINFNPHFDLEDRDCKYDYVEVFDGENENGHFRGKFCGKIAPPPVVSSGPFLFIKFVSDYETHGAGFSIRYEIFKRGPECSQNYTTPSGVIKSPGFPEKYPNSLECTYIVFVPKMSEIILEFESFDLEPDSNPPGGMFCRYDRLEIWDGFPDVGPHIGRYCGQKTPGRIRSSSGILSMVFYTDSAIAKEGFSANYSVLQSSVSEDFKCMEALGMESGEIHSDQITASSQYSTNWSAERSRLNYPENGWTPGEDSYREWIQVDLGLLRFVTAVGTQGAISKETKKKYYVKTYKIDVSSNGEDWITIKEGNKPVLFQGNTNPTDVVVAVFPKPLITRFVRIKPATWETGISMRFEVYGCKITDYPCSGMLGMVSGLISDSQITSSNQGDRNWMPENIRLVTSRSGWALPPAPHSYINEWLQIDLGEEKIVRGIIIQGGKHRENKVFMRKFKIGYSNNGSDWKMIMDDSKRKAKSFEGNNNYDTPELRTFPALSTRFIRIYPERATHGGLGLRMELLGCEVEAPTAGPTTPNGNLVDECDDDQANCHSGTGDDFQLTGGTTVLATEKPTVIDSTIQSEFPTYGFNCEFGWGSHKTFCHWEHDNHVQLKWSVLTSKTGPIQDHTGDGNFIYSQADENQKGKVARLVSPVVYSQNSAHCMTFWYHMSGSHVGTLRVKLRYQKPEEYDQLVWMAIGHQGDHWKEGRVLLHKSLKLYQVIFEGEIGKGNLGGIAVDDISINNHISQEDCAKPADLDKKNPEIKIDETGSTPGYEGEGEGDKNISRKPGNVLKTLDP

Results are given in words; binding and its absence hold for the method and conditions named. Some entries that bind do so weakly or less than the wild type.

The target in this assay is native human soluble VEGFR-1 (sVEGFR-1) (human) (UniProt P17948). Description: ELISA; 96-well Maxisorp plates coated with 10 ug/ml sVEGFR-1; binding buffer PBS with 3% BSA, 1 mM CaCl2, 0.5 mM MgCl2; 2 ug/ml VEGFR-1/Fc, 4 ug/ml VEGFR-2/Fc or 1 ug/ml NRP-1/Fc added; detection with alkaline phosphatase-conjugated anti-human Fc antibody, absorbance at 405 nm; selected wells pre-incubated with 5 ug/ml D16F7 mAb for 30 min at room temperature; both purified. On the technique in general: In an ELISA, binding on a coated surface is turned into a signal by an enzyme label.

Consider “recombinant neuropilin-1/Fc chimera (from UniProt O14786 22-856) (Fc fusion)”, for which the binding entry is “binds”.
